Data taken from article PMC9016969.

Target: GST-mTET2 (Mus musculus)
Experiment: pull-down; GST fusion proteins pre-bound to glutathione-Sepharose beads (50 mM Tris HCl pH 8.0, 150 mM NaCl, 5 mM EDTA, 1% Triton X-100, 1 mM DTT), incubated 1 h at 4 °C with whole cell lysate of transfected COS-1 cells; washed 3 x in KAc interaction buffer; immunoblot; only the target purified

- binding: binds
B1: FOXA1-V5 (protein, UniProt P55317-1 1-472)
chain: MLGTVKMEGHETSDWNSYYADTQEAYSSVPVSNMNSGLGSMNSMNTYMTMNTMTTSGNMTPASFNMSYANPGLGAGLSPGAVAGMPGGSAGAMNSMTAAGVTAMGTALSPSGMGAMGAQQAASMNGLGPYAAAMNPCMSPMAYAPSNLGRSRAGGGGDAKTFKRSYPHAKPPYSYISLITMAIQQAPSKMLTLSEIYQWIMDLFPYYRQNQQRWQNSIRHSLSFNDCFVKVARSPDKPGKGSYWTLHPDSGNMFENGCYLRRQKRFKCEKQPGAGGGGGSGSGGSGAKGGPESRKDPSGASNPSADSPLHRGVHGKTGQLEGAPAPGPAASPQTLDHSGATATGGASELKTPASSTAPPISSGPGALASVPASHPAHGLAPHESQLHLKGDPHYSFNHPFSINNLMSSSEQQHKLDFKAYEQALQYSPYGSTLPASLPLGSASVTTRSPIEPSALEPAYYQGVYSRPVLNTS

These are yes or no findings as the source states them, for the method shown. Binding seen in cells or lysates may run through a third protein. A result given as binding can be weak or reduced; the word gives no strength. Sequences can lack the tags named with a protein.
